Results from paper PMC7819943, “Rice protein-binding microarrays: a tool to detect cis-acting elements near promoter regions in rice”.
The other results are listed elsewhere or left out.

Target: T1, OsSMF1 (Oryza sativa, UniProt Q6ZLB0 1-436)
T1 sequence: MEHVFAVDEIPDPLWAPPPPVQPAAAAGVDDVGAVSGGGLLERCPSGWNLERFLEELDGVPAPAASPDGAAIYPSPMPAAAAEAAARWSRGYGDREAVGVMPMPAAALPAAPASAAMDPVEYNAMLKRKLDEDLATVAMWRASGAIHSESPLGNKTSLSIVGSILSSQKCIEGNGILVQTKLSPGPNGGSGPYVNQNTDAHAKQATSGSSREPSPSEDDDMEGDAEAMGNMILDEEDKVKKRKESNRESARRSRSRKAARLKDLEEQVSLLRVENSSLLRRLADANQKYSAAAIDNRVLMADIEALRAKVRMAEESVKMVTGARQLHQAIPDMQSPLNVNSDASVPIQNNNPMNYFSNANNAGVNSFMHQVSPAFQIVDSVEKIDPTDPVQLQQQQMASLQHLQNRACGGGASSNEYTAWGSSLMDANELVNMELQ
Assay: protein-binding microarray (RPBM); PBS, 2% BSA, 51.3 ng/ul salmon testes DNA, 50 uM zinc acetate, 200 nM TF, 25 C, 1 h; high values mean tight binding
Settings: protein: recombinant; tags: N-terminal polyhistidine and DsRed monomer fusion (pET32a); chain copies: 2; label: CyDye5-dUTP incorporated in the synthesized complementary strand; 3' TTTTT single-stranded linker to array surface; dsDNA, one strand shown
How it was run: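 Binding signal is reported as fluorescence intensity per feature (arbitrary units) from an Axon 4000B scanner. Incubation used 200 nM of each Ni–NTA-purified, N-terminally polyhistidine- and DsRed-fused transcription factor from E. coli BL21-CodonPlus on a double-stranded custom Agilent array for 1 h at 25 °C, with 50 µM zinc acetate in the buffer, followed by washing.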

Sequence	binding signal
AAAATGCTGTCAAATGGAGCTATCCGCGTGGATTCTCTGCCGGAGTCACCTAGTGCAG	4820 fluorescence intensity (a.u.)
GTACTGCGTCTACGTATACTCTCCTCTCTCTCTCTCACACCGGAGTCACCTAGTGCAG	4280 fluorescence intensity (a.u.)
CCACTAGCATGGGACAACTTCTCCTACACCCTCCGTGCCACGGAGTCACCTAGTGCAG	3160 fluorescence intensity (a.u.)
CTGTGAGTTCGTTGTCTGAGTGAGAGCTGGACGTGCTGCACGGAGTCACCTAGTGCAG	33000 fluorescence intensity (a.u.)
TTTATCACGTGGCTGTTCCACCAATATCACGTTGTCCTAGCGGAGTCACCTAGTGCAG	3930 fluorescence intensity (a.u.)
CAGTAATGTGCATTTGGTGAGTTGGTAGCCACCCGATCAACGGAGTCACCTAGTGCAG	3530 fluorescence intensity (a.u.)
AAGAAGTATATGGAAAGTGTGTACCATTAATCCAATCTTTCGGAGTCACCTAGTGCAG	3650 fluorescence intensity (a.u.)
TTTGCCGACCCAGTCTTCAAAGATGCTCATAGGGGTAGGGCGGAGTCACCTAGTGCAG	3360 fluorescence intensity (a.u.)
GGATCATGCCATTATGCGGTGACAAATGAACAAAACCCTGCGGAGTCACCTAGTGCAG	3900 fluorescence intensity (a.u.)
CTTTCGACATTCGGTCAAATATCTGACGTGACACTCAAATCGGAGTCACCTAGTGCAG	5540 fluorescence intensity (a.u.)
TATCTTGCAATTAAGTTGCAACCACGCCATCCTGCCTGAGCGGAGTCACCTAGTGCAG	4550 fluorescence intensity (a.u.)
ACGGGCACGACGACCGTCGTGCTCACGGCCGCCGACGTCGCGGAGTCACCTAGTGCAG	4140 fluorescence intensity (a.u.)
AAAGATGCGGGTCAATGCGACAGCGCCATCCGATCTCCCCCGGAGTCACCTAGTGCAG	25800 fluorescence intensity (a.u.)
GGAACTATGCGACTCATAATGGAATAAGAAATCCTGGGTTCGGAGTCACCTAGTGCAG	34200 fluorescence intensity (a.u.)
GGAGTGGGCCCCACATGTCATCGCGAGGCATCCTCCGTGGCGGAGTCACCTAGTGCAG	3460 fluorescence intensity (a.u.)
ATTACTCTACCATATCGACTGCGTCATCGCTGATCCATAGCGGAGTCACCTAGTGCAG	8920 fluorescence intensity (a.u.)
CTGTACATATGTCTGTGTGTGTGTCAGTGTGAGCGTTAGCCGGAGTCACCTAGTGCAG	3490 fluorescence intensity (a.u.)
TCGTAAGTAAATGTCGGATTTAATTCCATTATGTTAAAGACGGAGTCACCTAGTGCAG	3410 fluorescence intensity (a.u.)
ATATTCTTATACGTGCACTATTTCTATCCAACGTGGAATCCGGAGTCACCTAGTGCAG	5820 fluorescence intensity (a.u.)
TACCATTTCTTGACAAGTCAGATAGAAACCTGGATTCATTCGGAGTCACCTAGTGCAG	3640 fluorescence intensity (a.u.)
CCGTGCACGCTCCCAGATCATGCCACGTGGGTGGGCCCCACGGAGTCACCTAGTGCAG	16200 fluorescence intensity (a.u.)
TTTAGGCAAGTGGACAACAATAACACATCATTAATCTCCACGGAGTCACCTAGTGCAG	4500 fluorescence intensity (a.u.)
AGTGGCGTAGTATTTGGATCCGCCGCCTCCACTTCACCGACGGAGTCACCTAGTGCAG	3500 fluorescence intensity (a.u.)
CCCTGGCGGTGGGCGGTGGGCAGCTGAGGTGGAAGCAGAGCGGAGTCACCTAGTGCAG	5800 fluorescence intensity (a.u.)
CGCGCCAGATCAGATCCACCGCCCTCTCTCTCTCTCTCTCCGGAGTCACCTAGTGCAG	5670 fluorescence intensity (a.u.)
GCCACTTGCCCAGGTCACGCACACATTATTGAGCGAGCGACGGAGTCACCTAGTGCAG	4590 fluorescence intensity (a.u.)
TTCTTCGAGGACCACATGCGTGAGTGGATGACGGAGTTCCCGGAGTCACCTAGTGCAG	3950 fluorescence intensity (a.u.)

Rewritten in markdown: entries from further up.

| Sequence | binding signal |
| --- | --- |
| AAAATGCTGTCAAATGGAGCTATCCGCGTGGATTCTCTGCCGGAGTCACCTAGTGCAG | 4820 fluorescence intensity (a.u.) |
| GTACTGCGTCTACGTATACTCTCCTCTCTCTCTCTCACACCGGAGTCACCTAGTGCAG | 4280 fluorescence intensity (a.u.) |
| TTTATCACGTGGCTGTTCCACCAATATCACGTTGTCCTAGCGGAGTCACCTAGTGCAG | 3930 fluorescence intensity (a.u.) |
| CAGTAATGTGCATTTGGTGAGTTGGTAGCCACCCGATCAACGGAGTCACCTAGTGCAG | 3530 fluorescence intensity (a.u.) |
| AAGAAGTATATGGAAAGTGTGTACCATTAATCCAATCTTTCGGAGTCACCTAGTGCAG | 3650 fluorescence intensity (a.u.) |
| TTTGCCGACCCAGTCTTCAAAGATGCTCATAGGGGTAGGGCGGAGTCACCTAGTGCAG | 3360 fluorescence intensity (a.u.) |
| GGATCATGCCATTATGCGGTGACAAATGAACAAAACCCTGCGGAGTCACCTAGTGCAG | 3900 fluorescence intensity (a.u.) |
| AAAGATGCGGGTCAATGCGACAGCGCCATCCGATCTCCCCCGGAGTCACCTAGTGCAG | 25800 fluorescence intensity (a.u.) |
| GGAGTGGGCCCCACATGTCATCGCGAGGCATCCTCCGTGGCGGAGTCACCTAGTGCAG | 3460 fluorescence intensity (a.u.) |
| ATTACTCTACCATATCGACTGCGTCATCGCTGATCCATAGCGGAGTCACCTAGTGCAG | 8920 fluorescence intensity (a.u.) |
| CTGTACATATGTCTGTGTGTGTGTCAGTGTGAGCGTTAGCCGGAGTCACCTAGTGCAG | 3490 fluorescence intensity (a.u.) |
| TCGTAAGTAAATGTCGGATTTAATTCCATTATGTTAAAGACGGAGTCACCTAGTGCAG | 3410 fluorescence intensity (a.u.) |
| TACCATTTCTTGACAAGTCAGATAGAAACCTGGATTCATTCGGAGTCACCTAGTGCAG | 3640 fluorescence intensity (a.u.) |
| CCGTGCACGCTCCCAGATCATGCCACGTGGGTGGGCCCCACGGAGTCACCTAGTGCAG | 16200 fluorescence intensity (a.u.) |
| GCCACTTGCCCAGGTCACGCACACATTATTGAGCGAGCGACGGAGTCACCTAGTGCAG | 4590 fluorescence intensity (a.u.) |
| TTCTTCGAGGACCACATGCGTGAGTGGATGACGGAGTTCCCGGAGTCACCTAGTGCAG | 3950 fluorescence intensity (a.u.) |

(further entries)

Sequence	binding signal
GTGCCTGACAATCCTACAGGTGAAATCAACCCCTTTCATCCGGAGTCACCTAGTGCAG	40800 fluorescence intensity (a.u.)
ATAACACGTAGAAATACAGTTATCATGTCACCAAACATATCGGAGTCACCTAGTGCAG	4120 fluorescence intensity (a.u.)
GCGCGCGGCGAGTGACGCGGCGCGGCGTGTTCGTGCGTGCCGGAGTCACCTAGTGCAG	6300 fluorescence intensity (a.u.)
CCTCTCCACCGCGCTTTCCGCCAGCGCGATGACTCTGCGCCGGAGTCACCTAGTGCAG	5310 fluorescence intensity (a.u.)
GCCGCCCACCCGCGCCGTCCGCTGTCCAGGAAGGAGAGAGCGGAGTCACCTAGTGCAG	3480 fluorescence intensity (a.u.)
CTAGTCGGTATAGATGTTGATGTCTCCCCGACACACCTCCCGGAGTCACCTAGTGCAG	20900 fluorescence intensity (a.u.)
GAGCTCCCTGACCGCAGCGGTGATGTGAGCACTGGGCCATCGGAGTCACCTAGTGCAG	3160 fluorescence intensity (a.u.)
TGATCCTCGCTACGGCCGACTACGACGACGACAGGTTGCGCGGAGTCACCTAGTGCAG	3760 fluorescence intensity (a.u.)
CTTGGCAAGGAAAGGCGTCAGCTCGATGTCGTACGTCGGCCGGAGTCACCTAGTGCAG	3940 fluorescence intensity (a.u.)
TCTTGTCGCCATCGCATCGCCATCGCGTCACCATCTCGTCCGGAGTCACCTAGTGCAG	28400 fluorescence intensity (a.u.)
GCGCCGCCTCCCAATCCGGGAGGATCCCTCCGGACCCGCCCGGAGTCACCTAGTGCAG	5540 fluorescence intensity (a.u.)
AATTGATACTTGTGAGGATGACATGTAAGACTATCTGAGTCGGAGTCACCTAGTGCAG	4590 fluorescence intensity (a.u.)
GTCCCACGCTGACTCAGCCGTCACGTAGGATAAAACCGGACGGAGTCACCTAGTGCAG	14300 fluorescence intensity (a.u.)
CGGAGGGAGTATAAAAGAACAATACTTCTATAAATTTTGTCGGAGTCACCTAGTGCAG	40300 fluorescence intensity (a.u.)
CGAAACCACAAACGTGCCCTCCATTTACTAGCTGATTGGGCGGAGTCACCTAGTGCAG	3660 fluorescence intensity (a.u.)
AATTAAGATGTTGTCACATCAATGTCCTAAGTGACAAATACGGAGTCACCTAGTGCAG	4560 fluorescence intensity (a.u.)
AAAGGAAAGGCGCGTCACGGCGTCAGACGAGACGACGACGCGGAGTCACCTAGTGCAG	3340 fluorescence intensity (a.u.)
CCAGCAGCCCCTCTCTCATCCATGGTAGTGCTCTGTCATGCGGAGTCACCTAGTGCAG	3400 fluorescence intensity (a.u.)
GGATCAAATTGCCACATATGCGCCACGTTAATGCCACATCCGGAGTCACCTAGTGCAG	8660 fluorescence intensity (a.u.)
GAATGAATTGAAACAGACAATGCACACGCTTAGTCCATGACGGAGTCACCTAGTGCAG	28800 fluorescence intensity (a.u.)
ACTTGATGTGATATATCCTAGTCCAACGAATCTGGACAGCCGGAGTCACCTAGTGCAG	3260 fluorescence intensity (a.u.)
ATCCAAATGTTGAAACAGTATGAATTACAGTCATAGTACGCGGAGTCACCTAGTGCAG	3310 fluorescence intensity (a.u.)
AGAAGCTTTCCGAGGGTGGGCCCGCGTCGTCAGTGTGTGACGGAGTCACCTAGTGCAG	4060 fluorescence intensity (a.u.)
CCCCTCCTGGGACTACTCGGCCACGACGGCTTCCACCCCGCGGAGTCACCTAGTGCAG	3370 fluorescence intensity (a.u.)
GTTAGTATACTATTTATGAGTCAGCTCGAGCATGTGTCAACGGAGTCACCTAGTGCAG	11800 fluorescence intensity (a.u.)
CGTCTGATGATGCAACACCGTCGCCATTGTCGAGATCGGCCGGAGTCACCTAGTGCAG	5430 fluorescence intensity (a.u.)
TCTTTGGATATAAAGCAACTACAATTTCAAAGGTAACCAACGGAGTCACCTAGTGCAG	3460 fluorescence intensity (a.u.)
